# ± gives the standard deviation of the averaged measurements. The entries are a selection whose mix differs from that of the whole data set.
# Experiments:
# Test in all cases: NP40-soluble protein abundance relative to vehicle (solubility fold change) (ratio); higher = more soluble protein in presence of AMP-PNP
# [1] = target: T1, UniProt O75330 and related entries
# T1 sequence (whole entry): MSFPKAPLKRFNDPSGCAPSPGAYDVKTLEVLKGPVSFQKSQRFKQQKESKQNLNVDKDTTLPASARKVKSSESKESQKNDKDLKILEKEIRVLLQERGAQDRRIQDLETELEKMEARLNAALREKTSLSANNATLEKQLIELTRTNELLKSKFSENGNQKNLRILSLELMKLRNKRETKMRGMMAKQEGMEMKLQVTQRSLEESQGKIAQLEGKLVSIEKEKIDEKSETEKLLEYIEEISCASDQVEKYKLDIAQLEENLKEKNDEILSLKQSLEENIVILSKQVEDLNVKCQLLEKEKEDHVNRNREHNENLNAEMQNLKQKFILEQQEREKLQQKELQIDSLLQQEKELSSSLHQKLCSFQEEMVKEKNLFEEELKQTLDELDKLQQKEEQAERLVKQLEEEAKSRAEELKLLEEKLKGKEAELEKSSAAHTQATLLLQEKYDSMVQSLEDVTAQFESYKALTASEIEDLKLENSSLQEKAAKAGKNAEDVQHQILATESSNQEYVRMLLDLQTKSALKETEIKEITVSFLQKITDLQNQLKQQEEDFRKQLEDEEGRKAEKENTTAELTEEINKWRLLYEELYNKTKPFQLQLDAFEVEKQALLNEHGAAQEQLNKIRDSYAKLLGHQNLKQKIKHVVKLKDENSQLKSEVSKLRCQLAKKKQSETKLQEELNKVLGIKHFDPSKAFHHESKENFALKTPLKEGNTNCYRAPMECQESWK
# Procedure, shortened: (§1)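 Jurkat crude lysate prepared with a Dounce homogeniser was treated at eight concentrations spanning 0.1 to 10 mM, 10 min at room temperature then 3 min at 37 °C. Solubilisation with 0.8% NP40 and benzonase and ultracentrifugation preceded TMT labelling of the supernatant for LC-MS/MS. Fold change against the detergent-processed vehicle was determined per replicate from vsn-normalised intensities, across three independent experiments.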
# [2] = target: T2, UniProt O75934
# T2 sequence (whole entry): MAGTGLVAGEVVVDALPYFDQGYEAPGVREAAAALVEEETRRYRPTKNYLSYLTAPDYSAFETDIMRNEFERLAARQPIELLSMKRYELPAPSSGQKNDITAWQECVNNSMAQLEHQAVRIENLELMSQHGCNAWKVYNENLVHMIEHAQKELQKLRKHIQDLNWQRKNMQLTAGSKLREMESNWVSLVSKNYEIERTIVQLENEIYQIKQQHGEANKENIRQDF
# Procedure, shortened: as §1
# [3] = target: T3, UniProt O94864 and related entries
# T3 sequence (whole entry): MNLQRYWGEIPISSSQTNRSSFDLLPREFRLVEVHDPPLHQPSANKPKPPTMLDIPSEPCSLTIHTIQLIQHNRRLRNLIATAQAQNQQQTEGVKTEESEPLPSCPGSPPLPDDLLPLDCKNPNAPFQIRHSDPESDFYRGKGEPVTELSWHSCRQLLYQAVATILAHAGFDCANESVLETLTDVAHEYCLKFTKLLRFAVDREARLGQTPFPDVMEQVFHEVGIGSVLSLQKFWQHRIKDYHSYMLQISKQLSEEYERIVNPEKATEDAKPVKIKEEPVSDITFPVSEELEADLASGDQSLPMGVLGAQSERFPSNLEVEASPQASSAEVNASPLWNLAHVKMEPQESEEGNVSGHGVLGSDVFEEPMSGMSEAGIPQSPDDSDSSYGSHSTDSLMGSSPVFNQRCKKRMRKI
# Procedure, shortened: as §1
# [4] = target: T4, UniProt O95294 and related entries
# T4 sequence (whole entry): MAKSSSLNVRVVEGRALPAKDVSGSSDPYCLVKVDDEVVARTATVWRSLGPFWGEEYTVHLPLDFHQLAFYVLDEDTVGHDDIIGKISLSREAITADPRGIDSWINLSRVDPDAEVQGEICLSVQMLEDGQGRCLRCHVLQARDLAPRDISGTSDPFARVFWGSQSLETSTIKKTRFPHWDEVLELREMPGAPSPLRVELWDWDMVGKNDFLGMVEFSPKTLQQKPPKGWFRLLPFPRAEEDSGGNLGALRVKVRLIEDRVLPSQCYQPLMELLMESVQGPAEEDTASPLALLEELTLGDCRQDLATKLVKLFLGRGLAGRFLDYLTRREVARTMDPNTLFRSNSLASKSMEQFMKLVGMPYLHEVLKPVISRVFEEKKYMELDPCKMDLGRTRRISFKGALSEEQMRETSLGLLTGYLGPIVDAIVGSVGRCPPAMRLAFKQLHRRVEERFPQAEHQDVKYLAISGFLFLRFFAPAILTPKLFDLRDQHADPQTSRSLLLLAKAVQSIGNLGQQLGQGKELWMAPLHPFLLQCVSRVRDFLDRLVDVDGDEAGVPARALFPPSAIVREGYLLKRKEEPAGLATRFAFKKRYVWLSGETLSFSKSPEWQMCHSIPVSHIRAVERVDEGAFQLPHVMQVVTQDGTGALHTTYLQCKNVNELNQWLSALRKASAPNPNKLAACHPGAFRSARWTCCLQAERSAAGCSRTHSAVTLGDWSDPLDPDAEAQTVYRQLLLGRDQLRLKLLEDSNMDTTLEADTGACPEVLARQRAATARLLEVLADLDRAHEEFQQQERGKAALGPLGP
# Procedure, shortened: as §1
# [5] = target: T5, UniProt O95379-3|O95379-4
# T5 sequence (whole entry): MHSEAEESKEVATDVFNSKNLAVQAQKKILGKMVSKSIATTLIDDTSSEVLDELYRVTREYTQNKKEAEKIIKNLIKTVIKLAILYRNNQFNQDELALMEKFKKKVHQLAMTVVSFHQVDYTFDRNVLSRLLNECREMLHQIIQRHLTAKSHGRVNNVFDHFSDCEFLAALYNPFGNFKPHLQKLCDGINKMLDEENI
# Procedure, shortened: as §1
smiles,measurement,setting,value
Nc1ncnc2c1ncn2[C@@H]1O[C@H](COP(=O)(O)OP(=O)(O)NP(=O)(O)O)[C@@H](O)[C@H]1O [adenylyl imidodiphosphate],NP40-soluble protein abundance,[1]; concentration: 1mM,1.02 ± 0.019
same,NP40-soluble protein abundance,[1]; concentration: 2mM,1.06 ± 0.06
same,NP40-soluble protein abundance,[1]; concentration: 4mM,1.03 ± 0.032
same,NP40-soluble protein abundance,[1]; concentration: 6mM,0.983 ± 0.017
same,NP40-soluble protein abundance,[1]; concentration: 8mM,0.991 ± 0.019
same,NP40-soluble protein abundance,[1]; concentration: 10mM,0.996 ± 0.035
same,NP40-soluble protein abundance,[2]; concentration: 1mM,1.03 ± 0.012
same,NP40-soluble protein abundance,[2]; concentration: 2mM,1.08 ± 0.036
same,NP40-soluble protein abundance,[2]; concentration: 4mM,1.04 ± 0.042
same,NP40-soluble protein abundance,[2]; concentration: 6mM,1.03 ± 0.033
same,NP40-soluble protein abundance,[2]; concentration: 8mM,1.06 ± 0.025
same,NP40-soluble protein abundance,[2]; concentration: 10mM,1.07 ± 0.044
same,NP40-soluble protein abundance,[3]; concentration: 1mM,1.01 ± 0.018
same,NP40-soluble protein abundance,[3]; concentration: 2mM,1.04 ± 0.078
same,NP40-soluble protein abundance,[3]; concentration: 4mM,0.984 ± 0.046
same,NP40-soluble protein abundance,[3]; concentration: 6mM,0.961 ± 0.013
same,NP40-soluble protein abundance,[3]; concentration: 8mM,0.9073 ± 0.0015
same,NP40-soluble protein abundance,[3]; concentration: 10mM,0.946 ± 0.028
same,NP40-soluble protein abundance,[4]; concentration: 1mM,0.993 ± 0.012
same,NP40-soluble protein abundance,[4]; concentration: 2mM,0.968 ± 0.016
same,NP40-soluble protein abundance,[4]; concentration: 4mM,0.981 ± 0.026
same,NP40-soluble protein abundance,[4]; concentration: 6mM,0.9983 ± 0.0097
same,NP40-soluble protein abundance,[4]; concentration: 8mM,0.987 ± 0.031
same,NP40-soluble protein abundance,[4]; concentration: 10mM,0.9558 ± 0.0046
same,NP40-soluble protein abundance,[5]; concentration: 1mM,1.02 ± 0.024
same,NP40-soluble protein abundance,[5]; concentration: 2mM,1.04 ± 0.1
same,NP40-soluble protein abundance,[5]; concentration: 4mM,0.994 ± 0.041

# Reprinted at random: 2 records from the list.
smiles,measurement,setting,value
Nc1ncnc2c1ncn2[C@@H]1O[C@H](COP(=O)(O)OP(=O)(O)NP(=O)(O)O)[C@@H](O)[C@H]1O [adenylyl imidodiphosphate],NP40-soluble protein abundance,[2]; concentration: 6mM,1.03 ± 0.033
same,NP40-soluble protein abundance,[1]; concentration: 8mM,0.991 ± 0.019
